Test results reported in the supplement of paper PMC10735217.
Where a name gives a salt, the structure may show the parent alone. The list shows a part of the results. Single values are uncertain here, since repeats match poorly.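 In a drug-repurposing library screen, luminescence reads luciferase driven by eight TEAD-binding elements, stably integrated into human kidney-derived cells. Compounds scoring over five robust Z scores above the plate mean are called hits.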

Tested on: HEK293A TEAD-LUC reporter
Assay: TEAD-luciferase reporter activity (YAP activation), robust Z score vs plate; higher = stronger YAP/TEAD activation
Settings: 24 h

SMILES	TEAD-luciferase reporter activity (compound concentration: 200 nM)	TEAD-luciferase reporter activity (compound concentration: 2 uM)	TEAD-luciferase reporter activity (compound concentration: 10 uM)
OCC1OC(n2cnc3c(NCCc4ccccc4)ncnc32)C(O)C1O (stereo unspecified)	inactive: 0.0453	inactive: 0.683	inactive: -0.606
Cc1ccc(=O)n(-c2ccc(O)cc2)c1	inactive: -0.635	inactive: -1.89	inactive: 0.3
CCCCCc1cccc(CC(=O)[O-])c1	inactive: -1.28	inactive: -0.408	inactive: 0.171
O=C([O-])CN(CCN(CC(=O)[O-])CC(=O)[O-])CC(=O)[O-] [Edetate calcium disodium]	inactive: 3.15	inactive: 0.394	inactive: 1.66
CCOC(=O)OC(C)OC(=O)CNC(=O)[C@@H](CSSC[C@@H](N)CCSC)Cc1ccccc1 (stereo partly specified)	inactive: -0.512	inactive: 0.225	inactive: -1.24
CCCCCCCCC1OC(=O)c2ccccc21 (stereo unspecified)	inactive: 0.797	inactive: -1.42	inactive: -1.16
O=C(O)Cn1c(=O)n(Cc2ccc(Br)cc2F)c(=O)c2ccc(Cl)cc21 [Zenarestat]	inactive: -0.949	inactive: 0.182	inactive: 2.11
CNC(=O)[C@H]1O[C@@H](n2cnc3c(NCc4cccc(I)c4)ncnc32)[C@H](O)[C@@H]1O	inactive: -1.47	inactive: 0.409	inactive: -0.906
CN(C)C[C@@H]1CCn2cc(c3ccccc32)C2=C(C(=O)NC2=O)c2cn(c3ccccc23)CCO1	inactive: 1.04	inactive: 0.101	inactive: 2.2
Nc1ccc(C(=O)N2CCc3cc(S(=O)(=O)N4C[C@H](c5ccccc5)NC4=O)ccc32)cc1	inactive: -0.582	inactive: 3.97	active: 8.5
COc1nc(N)nc2c1ncn2[C@@H]1O[C@H](CO)[C@@H](O)[C@@H]1O [nelarabine]	inactive: -0.384	inactive: -1.16	inactive: 0.155
CO/N=C(\C(=O)NC1C(=O)N2C(C(=O)O)=C(COC(C)=O)CSC12)c1csc(N)n1 (stereo unspecified) [cefotaxime salt]		inactive: 1.12	
CO/N=C(\C(=O)NC1C(=O)N2C(C(=O)O)=C(COC(C)=O)CSC12)c1csc(N)n1 (stereo unspecified) [cefotaxime salt, delayed]	inactive: -0.418		inactive: -0.936
CCC(C)C(C(=O)O)n1sc2ccccc2c1=O (stereo unspecified)	inactive: 0.0213	inactive: -0.751	inactive: 3.39
Cc1ccc(C(=O)NC2CCN(c3ccc4ncc(-c5cccc(C(F)(F)F)c5)n4n3)CC2)cc1	inactive: -1.64		inactive: 1.38
COCCN(CCOC)C(=O)CCCC#Cc1cccc2nc(Cn3nc(-c4cccc(O)c4)c4c(N)ncnc43)n(Cc3ccccc3Cl)c(=O)c12	inactive: 0.135	inactive: -1.13	inactive: 2.52
NC(=O)c1cc(C#CCCN(O)C(N)=O)ccc1OCCN1CCN(C(c2ccccc2)c2ccc(Cl)cc2)CC1 (stereo unspecified)	inactive: -0.366	inactive: -0.00518	inactive: -0.353
COc1ccc(N2CCc3c(-n4ccc(N5CCNC5=O)n4)cc(C)nc32)c(C)c1 [Emicerfont]	inactive: 0.801	inactive: 0.256	inactive: 0.721
CC(=O)NC[C@H]1CN(c2ccc(N3CCN(C(=O)CO)CC3)c(F)c2)C(=O)O1 [Eperezolid]	inactive: -0.377	inactive: -1.17	inactive: -0.318
CCCC[C@H](NC(=O)N[C@@H](CC(=O)O)c1ccc2c(c1)OCO2)C(=O)N(Cc1cccs1)Cc1cccs1	inactive: -0.503	inactive: -1.65	inactive: -0.603
CC[C@H](C)[C@H](N)C(=O)N[C@@H](CCSC)C(=O)N[C@@H](CC(=O)O)C(=O)N[C@@H](CCC(N)=O)C(=O)N[C@H](C(=O)N1CCC[C@H]1C(=O)N[C@@H](Cc1ccccc1)C(=O)N[C@@H](CO)C(=O)N[C@H](C(=O)O)C(C)C)C(C)C [Disomotide]	inactive: -0.992	inactive: 2.49	inactive: 2
CC1(C)Oc2cc3oc(C(=O)O)cc(=O)c3cc2-c2ccccc21	active: 7.05	inactive: -0.164	inactive: 0.546
Nc1cc(C(Cl)=C(Cl)Cl)c(S(N)(=O)=O)cc1S(N)(=O)=O [Clorsulon]		inactive: -1.42	
Nc1cc(C(Cl)=C(Cl)Cl)c(S(N)(=O)=O)cc1S(N)(=O)=O	inactive: -0.362		inactive: 4.5
O=C(CC(c1ccccc1)c1ccccc1)N1CCN(C(c2ccccc2)c2ccccc2)CC1	inactive: -0.0932	inactive: -1.26	inactive: -0.438
Oc1ccccc1CCOc1ccc(F)cc1	active: 6.83	inactive: 0.337	inactive: -0.174

Quoted at random: 2 records from the list
SMILES	TEAD-luciferase reporter activity (compound concentration: 200 nM)	TEAD-luciferase reporter activity (compound concentration: 2 uM)	TEAD-luciferase reporter activity (compound concentration: 10 uM)
Cc1ccc(C(=O)NC2CCN(c3ccc4ncc(-c5cccc(C(F)(F)F)c5)n4n3)CC2)cc1	inactive: -1.64		inactive: 1.38
CCCCCCCCC1OC(=O)c2ccccc21 (stereo unspecified)	inactive: 0.797	inactive: -1.42	inactive: -1.16
